Drawing on PubChem BioAssay AID662 (National Center for Advancing Translational Sciences (NCATS), 2007), this text covers AC50 for 65 compounds.

“And” between values parts separate entries of the source, which are not always exact repeats. Equal values may be shown once. The list shows a part of the results. Shown are side measurements of this screen, not its main read-out; they come without a call. Most of these compounds were active or inconclusive in the main read-out, so they are no random draw. The note in brackets gives the kind of curve behind each potency; many fits are weak.

The nature of this assay: Cell signaling CRE-BLA (Fsk stim). As to conditions: CHO CRE-bla reporter (cAMP response element driving beta-lactamase), forskolin EC10, beta-lactamase ratio; measured here: 460 nm blue channel. The source says: NIH Molecular Libraries Screening Centers Network [MLSCN]
NIH Chemical Genomics Center [NCGC]
Assay Provider: Marshall W. Nirenberg, U.S. National heart lung & blood institute
Memories persist for different lengths of time, from seconds or minutes to a lifetime. There are two kinds of memory: short-term memory (STM) and long-term memory (LTM). STM lasts for minutes to hours, which maybe mediated by modifications of molecules involved in synaptic functions. LTM lasts for days or longer, and may be due to the formation of new synapses or restructuring of existing synapses. LTM, but not STM, requires gene transcription and synthesis of proteins. CREB (cyclic-AMP Responsive Element Binding Protein) is one of the candidates plays an important role for enhancement of some types of LTM. CREB, a family of transcription factors, regulates the transcription of genes containing cAMP Responsive Elements (CRE). CRE is a nucleotide sequence often found in the promoter regions of genes that are binding sites for CREB.
Using a beta-lactamase reporter-gene under control of cAMP responsive element, a cell-based assay [CellSensor(TM) CRE-bla CHO developed by Invitrogen Corp.] was used to measure forskolin-induced signaling. Library compounds were measured for their ability to modulate positively or negatively the action of EC10 NKH 477, a water soluble forskolin, on reporter gene activity. Compounds were screened in a titration series in 1536-well format. Positive and negative modulators were identified based on the AC50 values derived from the screening data.
NCGC Assay Protocol Summary
2000 cells/5uL in Opti-MEM medium containing 0.5% dialyzed FBS, 0.1 mM NEAA, 1 mM sodium pyruvate and 10 mM HEPES was dispensed into 1536-well plates and cells were cultured at 37 degrees Celsius overnight. […] And then the plates were incubated at 37 degrees Celsius for 3 hours. 1 uL of CCF4-dye mixture was added to each well. After incubated at room temperature for 2 hours the plates were measured on an EnVision plate reader at Excitation 405nm, Emission1=460nm and Emission 2=530nm. The %Activity was determined from the ratio of 460nm/530nm.
Keywords: NIH Roadmap, MLSCN, MLSMR, qHTS, NCGC, CRE, beta-lactamase reporter-gene assay.
In the case of `COC(=O)COc1cc(C)cc2oc(=O)c3c(c12)CCCC3`, the AC50 is 12.6 µM [rising, partial curve]. Turning to `CN(C)c1ccc(N=Nc2ccccc2)cc1`, the AC50 was 12.6 µM [falling, partial curve, poor fit]. As to `C[C@@H](Cc1ccccc1)NCCC(c1ccccc1)c1ccccc1`, the AC50 is 10 µM [falling, partial curve, poor fit]. Consider `C[C@H]1CCCC=CC2C[C@H](O)C[C@@H]2[C@H](O)/C=C\C(=O)O1` (stereo not given in full), for which the half-maximal activity concentration (AC50) is 0.501 µM [falling, full curve]. As for `CC(C)CC(C)Nc1ccc(Nc2ccccc2)cc1` (stereo not given), the AC50 is 25.1 µM [falling, single point].

As for `COc1ccc(N2C(=O)CC(N3CC=C(c4ccccc4)CC3)C2=O)cc1` (stereo not given), the half-maximal activity concentration (AC50) was 31.6 µM [falling, single point]. As to `N#CC1=C(N)Oc2c(c(=O)oc3ccccc23)C1c1cccnc1` (stereo not given), the concentration at half-maximal activity (AC50) was 5.01 µM [falling, partial curve]. In the case of `CCOC(=O)CC(SP(=O)(OC)OC)C(=O)OCC` (stereo not given), the AC50 was 2.51 µM [falling, full curve, poor fit].

For the compound `Oc1ccc2c3c1O[C@H]1c4c(c5ccccc5n4Cc4ccccc4)C[C@]4(O)[C@H](C2)N(CC2CC2)CC[C@@]314`, the half-maximal activity concentration (AC50) is 20 µM [falling, partial curve, poor fit].

Turning to `C[C@H]1CCC[C@H](O)CCCCCc2cc(O)cc(O)c2C(=O)O1`, the half-maximal activity concentration (AC50) is 10 µM [rising, single point]. `COC(=O)c1cc(COc2cc(C)cc3oc(=O)c4c(c23)CCC4)c(C)o1`: the AC50 was 5.01 µM [falling, single point].

As to `Cn1ncnc2c(=O)n(C)c(=O)nc1-2`, the AC50 is 0.794 µM [falling, full curve, poor fit].

For the compound `CC(=O)[O-].CC(=O)[O-].O.O.[Cd+2]`, the AC50 is 1 µM [rising, full curve, poor fit]. Regarding `Cc1[nH]c2ccccc2c1C1=CCNCC1`, the AC50 was 10 µM [falling, partial curve]. The same measure for `C=CCCN1C[C@@H]2C[C@H](C1)c1cccc(=O)n1C2`: 15.8 µM [falling, partial curve, poor fit]; for `CCC(=NCC1CCCO1)c1c(O)[nH]c(=O)[nH]c1=O` (stereo not given): 12.6 µM [rising, partial curve, poor fit]. For `CCOC(=O)c1c(-c2ccccc2)oc2ccc(OC(=O)N(C)C)cc12`, the half-maximal activity concentration (AC50) was 15.8 µM [rising, partial curve]. Consider `COc1ccccc1CN1CCN(C(=O)Cc2ccccc2)CC1`, for which the half-maximal activity concentration (AC50) was 0.158 µM [rising, full curve]. As to `O=[As](O)(O)c1ccc(Cc2ccc([As](=O)(O)O)cc2)cc1`, the concentration at half-maximal activity (AC50) was 3.98 µM [rising, single point]. For the compound `c1ccc2c(CN3CCN(C4CCCCC4)CC3)c[nH]c2c1`, the AC50 is 2.51 µM [falling, full curve]. For the compound `CCOP(=O)(C#CC(C)(C)C)C(O)(c1ccccc1)C(F)(F)F` (stereo not given), the concentration at half-maximal activity (AC50) was 25.1 µM [rising, single point]. The result for `CC(C)(O)[C@@H]1[C@H]2OC(=O)[C@@H]1[C@]1(O)C[C@H]3O[C@]34C(=O)O[C@H]2[C@@]14C` (tested in a mixture with another compound) reads 15.8 µM [falling, single point]; that for `CCCCP(=O)(O)CCC(=O)O`, 3.98 µM [falling, full curve]; that for `CCOc1cc2[nH]c(=S)n(CCCC(=O)N3CCC4(CC3)OCCO4)c(=O)c2cc1OCC`, 0.00398 µM [falling, full curve, poor fit]. On to `C[C@@H]1CCC/C=C\[C@H]2C[C@H](O)C[C@@H]2[C@H](O)/C=C\C(=O)O1`, for which the concentration at half-maximal activity (AC50) is 15.8 µM [falling, partial curve].

As to `O=c1[nH]c(=O)n(CCC2=CCCCC2)c(O)c1C=NC1CCN(Cc2ccccc2)CC1`, the concentration at half-maximal activity (AC50) is 2.51 µM [rising, partial curve]. As to `O=S(=O)(c1ccc(Cl)cc1)N1CN2CCN(C2)C1`, the AC50 was 0.126 µM [falling, single point].

For the compound `COc1cccc(-c2nc(CS(=O)CC(=O)N3CCC4(CC3)OCCO4)c(C)o2)c1` (stereo not given), the half-maximal activity concentration (AC50) is 0.00316 µM [falling, full curve, poor fit]. Turning to `O=C(NC1(C(F)(F)F)Oc2ccc(Cl)cc2O1)N1CCC2(CC1)OCCO2` (stereo not given), the AC50 is 7.94 µM [falling, partial curve, poor fit].

Take `CCOCN(C(=O)CCl)c1c(C)cccc1CC`: the AC50 was 15.8 µM [falling, partial curve, poor fit]. The same measure for `COc1ccccc1-n1c(O)c(C=NCc2ccc3c(c2)OCO3)c(=O)[nH]c1=O`: 12.6 µM [falling, partial curve]. With `C=C(C)CN1CC[C@@]23c4c5ccc(O)c4O[C@H]2c2[nH]c4ccccc4c2C[C@]3(O)[C@@H]1C5`, the AC50 is 15.8 µM [falling, partial curve]. In the case of `CN1CCN(c2ccc([N+](=O)[O-])c3[nH]o[n+](=O)c23)CC1`, the AC50 is 3.98 µM [rising, single point]. The result for `CCCCn1c(O)c(C(C)=NCCCN(C)C)c(=O)[nH]c1=O` reads 3.98 µM [falling, single point]. Turning to `CC1=NN(c2ccccc2)C(=O)[C@@H]1N=Nc1ccc([As](=O)(O)O)c(O)c1`, the concentration at half-maximal activity (AC50) is 3.98 µM [falling, partial curve, poor fit]. As to `CC(C)(C)n1c(O)c(C=Nc2ccc3c(c2)CCC3)c(=O)[nH]c1=O`, the concentration at half-maximal activity (AC50) is 15.8 µM [rising, single point]. Take `COc1ccc(N=C(C)c2c(O)n(C3CCCCC3)c(=O)[nH]c2=O)c(OC)c1`: the AC50 was 0.1 µM [rising, full curve, poor fit].

For `COc1cc2c(cc1OC)[C@H](C)NCC2`, the AC50 was 12.6 µM [rising, partial curve, poor fit]. In the case of `CC1(C)N(O)C(c2ccc(C(=O)O)cc2)=[N+]([O-])C1(C)C`, the half-maximal activity concentration (AC50) is 3.16 µM [rising, partial curve, poor fit]. In the case of `CN(C)[C@@H]1C(=O)C(C(N)=O)=C(O)[C@]2(O)C(=O)C3=C(O)c4c(O)cccc4[C@@](C)(O)[C@@H]3C[C@@H]12`, the AC50 is 0.0794 µM [rising, full curve, poor fit]. `NNC(N)=O`: the AC50 was 12.6 µM [falling, single point]. In the case of `O=c1c2ccccc2nc(CSc2ncnc3nc[nH]c23)n1-c1ccccc1`, the AC50 was 0.2 µM [rising, full curve, poor fit]. With `CCOc1cccc(C2NCc3ccccc3-n3cccc32)c1O` (stereo not given), the AC50 was 3.16 µM [falling, full curve, poor fit]. The result for `NCCc1ccc(O)cc1` reads 25.1 µM [falling, partial curve]; that for `CCCS(=O)(=O)N1CCC(C(=O)N2CCC3(CC2)OCCO3)CC1`, 0.251 µM [rising, full curve, poor fit]; that for `CCCNC(=O)c1c(N)n(Cc2ccc3c(c2)OCO3)c2nc3ccccc3nc12`, 0.398 µM [rising, full curve]. As for `O=c1ccc2cc(O[C@@H]3O[C@@H](CO)[C@@H](O)[C@@H](O)[C@H]3O)c(O)cc2o1`, the AC50 was 15.8 µM [rising, partial curve].

For `Nc1c(C(=O)NC2CCCC2)c2nc3ccccc3nc2n1CC1CCCO1` (stereo not given), the concentration at half-maximal activity (AC50) was 12.6 µM [rising, partial curve]. Consider `CCC(=NCc1ccco1)c1c(O)n(-c2ccc(OC)cc2)c(=O)[nH]c1=O`, for which the half-maximal activity concentration (AC50) is 12.6 µM [rising, partial curve]. In the case of `CCCCn1c(O)c(C(C)=NCc2ccc(F)cc2)c(=O)[nH]c1=O`, the AC50 is 25.1 µM [rising, partial curve]. Regarding `CCOC(=O)C(O)(c1ccc(N)c(OC)c1)C(F)(F)F` (stereo not given), the AC50 was 25.1 µM [rising, single point]. In the case of `CN1C(=O)C(Cc2c[nH]c3ccccc23)C(=O)N(C)C1=O`, the half-maximal activity concentration (AC50) is 15.8 µM [falling, partial curve, poor fit]. For the compound `COc1ccc2c3c([nH]c2c1)C(C)=NCC3`, the AC50 is 10 µM [rising, partial curve] and 25.1 µM [rising, partial curve]. The same measure for `Cn1c2ccccc2c2c(C(=O)N3CCC4(CC3)OCCO4)cn(C3CCCC3)c(=O)c21`: 0.398 µM [rising, full curve, poor fit]; for `C#CCN1C(C)=C(C(=O)CCO)[C@@H](c2cccc(-n3oo3)c2)C(C(=O)OC)=C1C`: 1.26 µM [rising, full curve, poor fit].

`CC[C@H]1CN2CC[C@@H]1C[C@@H]2[C@H](O)c1ccnc2ccccc12`: the concentration at half-maximal activity (AC50) is 0.251 µM [rising, full curve, poor fit]. With `CC(C)(Cc1c[nH]c2ccc(Cl)cc12)NCCOc1ccccc1OCC1CC1`, the AC50 was 25.1 µM [falling, partial curve, poor fit]. Turning to `Cc1ccc(C[N+](C)(C)C)o1`, the AC50 was 12.6 µM [falling, single point]. The result for `CCN1CCC2(CCNC2)C1` (stereo not given) reads 10 µM [rising, single point].

For `C=CP(=O)(O)c1ccccc1`, the AC50 is 0.1 µM [rising, partial curve]. Take `COc1ccccc1N1CCN(Cc2ccc(Br)s2)CC1`: the AC50 is 0.631 µM [rising, partial curve].

As to `N#Cc1cc2c(nc1SCC(=O)Nc1ccc(Cl)cc1)C1CCN2CC1`, the AC50 was 15.8 µM [rising, single point].

For `COc1ccc2c(c[n+](C)c3c4cc5c(cc4ccc23)OCO5)c1OC`, the concentration at half-maximal activity (AC50) is 12.6 µM [rising, partial curve]. As to `CCc1cccc(CC)c1N(COC)C(=O)CCl`, the AC50 was 31.6 µM [falling, partial curve, poor fit]. The result for `CCCCn1c(O)c(C=NC2CC3CCC2(C)C3(C)C)c(=O)[nH]c1=O` (stereo not given) reads 12.6 µM [rising, partial curve].
